{"source": "PubChem BioAssay AID540276", "about": "(National Center for Advancing Translational Sciences (NCATS), 2011)", "note": "Hit rate of the full screen: of about 300,000 compounds, about 5,400 (1.8%) were called active. Inconclusive means that the source gave no clear call. Such entries were picked first, then a sample of the others. Calls follow the shape of the full dose curve; tested in HEK293 cells. Where the call is inconclusive, the potency comes from a doubtful curve fit. Potency is read from the fitted curve at half-maximal effect."}
{"assay": "qHTS for inhibitors of binding or entry into cells for Marburg Virus", "conditions": "Marburg virus pseudotyped entry inhibition, cell reporter; series mostly up to 37.8 µM"}
{"compound": "O=C(CCC(=O)N/N=C/c1ccccc1O)NCc1ccccc1", "Potency": "inconclusive: 12.6 µM [inhibitor, partial curve, poor fit]"}
{"compound": "COc1c(C)cc(S(=O)(=O)NCc2ccco2)c(C)c1C", "Potency": "inactive"}
{"compound": "O=[N+]([O-])c1cc([N+](=O)[O-])c2n[nH]c(-c3ccccc3)c2c1", "Potency": "inconclusive: 2.51 µM [inhibitor, single point]"}
{"compound": "COc1ccc(NC2CC(=O)N(c3cc([N+](=O)[O-])ccc3C)C2=O)cc1", "note": "(stereo not drawn)", "Potency": "inactive"}
{"compound": "COc1ccc(C(=O)NCC(C)(C)SCc2c(C)cc(C)cc2C)cc1", "Potency": "inconclusive: 29.1 µM [inhibitor, single point]"}
{"compound": "COc1ccc(N(C)S(=O)(=O)c2cccc(C(=O)NCC3CCCO3)c2)cc1", "note": "(stereo not drawn)", "Potency": "inactive"}
{"compound": "COc1ccc(C(=O)CSc2nc(SC)ns2)cc1OC", "Potency": "inactive"}
{"compound": "COc1ccc(OC)c(-c2cc(C3CCN(C(=O)OC(C)(C)C)CC3)[nH]n2)c1", "Potency": "inconclusive: 22.4 µM [inhibitor, single point]"}
{"compound": "CN(C)/C=N/c1ncc(C(=O)c2ccc(-c3ccccc3)cc2)s1", "Potency": "inconclusive: 12.6 µM [inhibitor, single point]"}
{"compound": "CC(C)CN1CCN(Cc2ccc(C#CC(C)(C)O)cc2)CC1CCO", "note": "(stereo not drawn)", "Potency": "inconclusive: 15.8 µM [inhibitor, single point]"}
{"compound": "Cc1ccc(OCCOC(=O)c2cc(S(=O)(=O)N3CCCCC3)ccc2N2CCOCC2)cc1", "Potency": "inconclusive: 1 µM [inhibitor, partial curve, poor fit]"}
{"compound": "CCCC(=O)NC(Oc1ccc(C(C)=O)cc1)C(Cl)(Cl)Cl", "note": "(stereo not drawn)", "Potency": "inactive"}
{"compound": "Cc1nnc2n1CCCCC2", "Potency": "inconclusive: 35.5 µM [inhibitor, single point]"}
{"compound": "CCC(=O)N1CCN(c2nc(-c3ccc(Cl)cc3)cs2)CC1", "Potency": "inactive"}
{"compound": "O=C(Nc1ccccc1NC(=O)c1ccco1)c1ccco1", "Potency": "inconclusive: 3.66 µM [inhibitor, partial curve, poor fit]"}
{"compound": "Cc1ccc(OCC(=O)NCCO)cc1C", "Potency": "inactive"}
{"compound": "Cn1cc(C(=O)N/N=C/C(Br)=C\\c2ccccc2)ccc1=O", "Potency": "inconclusive: 11.2 µM [inhibitor, single point]"}
{"compound": "COc1cccc(C(=O)/C=C/Nc2cc(C)ccc2O)c1", "Potency": "inconclusive: 10.3 µM [inhibitor, partial curve, poor fit]"}
{"compound": "CCOc1ccc2nc3ccc4[nH]onc4c3c2c1", "Potency": "inactive"}
{"compound": "O=C(C1CCCN(S(=O)(=O)Cc2ccccc2)C1)N1CCc2ccccc21", "note": "(stereo not drawn)", "Potency": "inconclusive: 3.16 µM [inhibitor, partial curve, poor fit]"}
{"compound": "COc1ccc(C(=O)COC(=O)c2cccc(NC(=O)c3ccc(OC)c(OC)c3)c2)cc1", "Potency": "inactive"}
{"compound": "COc1cc(/C=N/Nc2snc(SC)c2C#N)cc(OC)c1OC", "Potency": "active: 1.58 µM"}
{"compound": "Cc1ccc2c(C(=O)CN3CCC4(CC3)OCCO4)c(C)[nH]c2c1", "Potency": "inactive"}
{"compound": "Cc1c(NC(=O)c2cnn3c2NC(c2ccco2)CC3C(F)(F)F)c(=O)n(-c2ccccc2)n1C", "note": "(stereo not drawn)", "Potency": "inconclusive: 0.112 µM [activator, full curve, poor fit]"}
{"compound": "COc1ccc(C2C(C#N)=C(N)OC3=C2C(=O)CC(C)(C)C3)cc1Cn1cc([N+](=O)[O-])cn1", "note": "(stereo not drawn)", "Potency": "inconclusive: 25.9 µM [inhibitor, partial curve, poor fit]"}
{"compound": "COc1cccc(-n2ccnc2SCC(=O)Nc2ccccc2F)c1", "Potency": "inconclusive: 3.16 µM [activator, single point]"}
{"compound": "NNC(=O)c1nn(-c2ccc(Cl)cc2)ccc1=O", "Potency": "inconclusive: 8.2 µM [activator, partial curve, poor fit]"}
{"compound": "Nc1cc(N2CCNCC2)c([N+](=O)[O-])cc1Cl", "Potency": "inconclusive: 4.47 µM [activator, full curve, poor fit]"}
{"compound": "Oc1cc(O)c2c(c1)O[C@H](c1ccc(O)c(O)c1)[C@H](O)C2", "Potency": "inconclusive: 12.5 µM [activator, single point]"}
{"compound": "Cc1cc2ccccc2n2c(SCC(=O)Nc3ccc(S(=O)(=O)N4CCC(C)CC4)cc3)nnc12", "Potency": "inconclusive: 10 µM [inhibitor, partial curve, poor fit]"}
{"compound": "CSCCC(NC(=O)C12CC3CC(CC(C3)C1)C2)C(=O)OCC(=O)c1ccccc1", "note": "(stereo not drawn)", "Potency": "inconclusive: 35.5 µM [activator, partial curve, poor fit]"}
{"compound": "CC(=O)c1cc2c(cc1NC(=O)CCc1c(C)nc3ncnn3c1C)OCO2", "Potency": "inconclusive: 5.62 µM [activator, single point]"}
{"compound": "Cc1cc(OCC(=O)c2ccc(F)cc2)ccc1N1C(=O)CCC1=O", "Potency": "inconclusive: 3.55 µM [inhibitor, single point]"}
{"compound": "Nc1nc2ccc(OC(F)(F)F)cc2s1", "Potency": "inactive"}
{"compound": "C=CCn1c(=N)c(C(=O)NCCCOC)cc2c(=O)n3cccc(C)c3nc21", "Potency": "inconclusive: 35.5 µM [inhibitor, single point]"}
{"compound": "CCN(CC(=O)NCc1ccc(Cl)cc1)C(=O)COc1ccc(C)cc1C", "Potency": "inconclusive: 22.4 µM [inhibitor, single point]"}
{"compound": "N#Cc1cccc(NC(=O)CSc2ccc3c4c(cccc24)C(=O)c2ccccc2-3)c1", "Potency": "inconclusive: 12.6 µM [inhibitor, partial curve]"}
{"compound": "COc1ccc(S(=O)(=O)N2CCN(C(=S)NCCc3ccccc3)CC2)cc1", "Potency": "inconclusive: 14.1 µM [inhibitor, partial curve, poor fit]"}
{"compound": "Cc1n[nH]c(C)c1C(=O)CC1(O)C(=O)N(Cc2ccccc2)c2ccc(Br)cc21", "note": "(stereo not drawn)", "Potency": "inconclusive: 13 µM [inhibitor, partial curve]"}
{"compound": "CCOC(=O)C(CC)Sc1nnc2c3cc(C)ccc3n(C)c2n1", "note": "(stereo not drawn)", "Potency": "inactive"}
{"compound": "O=C(c1cc(S(=O)(=O)N2CCOCC2)c(Cl)cc1Cl)N1CCCCC1CO", "note": "(stereo not drawn)", "Potency": "inactive"}
{"compound": "CC(C)(C)n1[nH]c2c3c(ccc2c1=O)C(=O)c1ccccc1C3=O", "Potency": "inconclusive: 1.46 µM [inhibitor, partial curve]"}
{"compound": "COc1ccc(C)cc1N(C(=O)c1ccccc1F)c1nc2ccccc2s1", "Potency": "inconclusive: 0.501 µM [inhibitor, full curve, poor fit]"}
